Measurements: US20170189507A1, “NOVEL PEPTIDES AND COMBINATION OF PEPTIDES FOR USE IN IMMUNOTHERAPY AGAINST VARIOUS CANCERS” (immatics biotechnologies GmbH, priority 2015, published 2017)

Tested on: HLA-A*02-positive cancer and normal tissue samples
Assay: Identification and relative LC-MS quantitation of HLA-A*02-presented tumor-associated peptides on tissue samples (XPRESIDENT)
Parameters: species or system human
Settings: HLA-A*02-binding peptides; examples named in the text for Table 13

In the case of “1 (LLYPEPWSV; listed as Homo sapiens) [compound 1]”, the “presentation on various cancer entities” value was “glioblastoma, non-small cell lung cancer, and ovarian cancer”.
